# Literature values as cited in patent publication US5004758A, “Water soluble camptothecin analogs useful for inhibiting the growth of animal tumor cells” (priority 1988, dated 1991).
# Conditions: background statement; cited from earlier work
compound,measurement,value
CC[C@@]1(O)C(=O)OCc2c1cc1n(c2=O)Cc2cc3ccccc3nc2-1 [Camptothecin],solubility in water,water-insoluble
